## Library screen at single concentrations

By UniProt entry, the sequences of proteins in these tests, tags left out. Residues count along the entry.
UniProt P9WFT3, whole entry: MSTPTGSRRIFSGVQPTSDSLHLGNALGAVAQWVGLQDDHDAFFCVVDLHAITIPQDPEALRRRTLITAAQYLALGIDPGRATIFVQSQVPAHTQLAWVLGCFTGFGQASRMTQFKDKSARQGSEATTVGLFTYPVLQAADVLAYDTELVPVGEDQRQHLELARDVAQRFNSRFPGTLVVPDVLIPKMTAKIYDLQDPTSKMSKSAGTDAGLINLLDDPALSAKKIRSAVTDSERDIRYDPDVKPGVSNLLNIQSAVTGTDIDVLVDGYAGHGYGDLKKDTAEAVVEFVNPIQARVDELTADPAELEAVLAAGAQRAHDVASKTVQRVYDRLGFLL
UniProt Q4DA54, 1-478: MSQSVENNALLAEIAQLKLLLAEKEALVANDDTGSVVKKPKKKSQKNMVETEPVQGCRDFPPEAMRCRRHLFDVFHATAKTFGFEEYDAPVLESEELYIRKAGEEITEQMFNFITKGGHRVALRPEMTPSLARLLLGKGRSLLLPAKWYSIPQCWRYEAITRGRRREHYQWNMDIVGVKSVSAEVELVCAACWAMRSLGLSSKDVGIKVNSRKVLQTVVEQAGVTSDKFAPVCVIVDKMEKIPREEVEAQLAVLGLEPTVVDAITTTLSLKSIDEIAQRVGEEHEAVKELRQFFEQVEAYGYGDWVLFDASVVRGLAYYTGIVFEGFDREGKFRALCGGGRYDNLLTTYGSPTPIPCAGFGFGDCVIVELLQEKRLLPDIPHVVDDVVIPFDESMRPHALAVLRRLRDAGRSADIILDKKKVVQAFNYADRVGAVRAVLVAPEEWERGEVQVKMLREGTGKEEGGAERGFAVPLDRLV
UniProt Q8IDJ8, 1-583: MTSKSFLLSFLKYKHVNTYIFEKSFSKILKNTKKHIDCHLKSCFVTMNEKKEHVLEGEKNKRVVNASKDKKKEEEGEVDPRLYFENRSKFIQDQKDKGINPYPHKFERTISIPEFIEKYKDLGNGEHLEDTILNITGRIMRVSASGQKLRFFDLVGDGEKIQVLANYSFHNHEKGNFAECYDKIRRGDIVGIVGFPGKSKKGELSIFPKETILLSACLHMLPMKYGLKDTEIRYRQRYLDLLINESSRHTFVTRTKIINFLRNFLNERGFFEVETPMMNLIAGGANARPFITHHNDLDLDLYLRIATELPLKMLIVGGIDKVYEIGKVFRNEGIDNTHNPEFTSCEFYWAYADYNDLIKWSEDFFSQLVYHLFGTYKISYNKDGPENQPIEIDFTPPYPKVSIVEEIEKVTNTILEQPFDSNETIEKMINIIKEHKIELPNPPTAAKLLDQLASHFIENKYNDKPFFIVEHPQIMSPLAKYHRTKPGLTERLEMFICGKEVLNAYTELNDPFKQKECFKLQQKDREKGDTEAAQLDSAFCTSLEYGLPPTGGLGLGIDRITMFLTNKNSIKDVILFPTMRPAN
UniProt P9WNZ1, whole entry: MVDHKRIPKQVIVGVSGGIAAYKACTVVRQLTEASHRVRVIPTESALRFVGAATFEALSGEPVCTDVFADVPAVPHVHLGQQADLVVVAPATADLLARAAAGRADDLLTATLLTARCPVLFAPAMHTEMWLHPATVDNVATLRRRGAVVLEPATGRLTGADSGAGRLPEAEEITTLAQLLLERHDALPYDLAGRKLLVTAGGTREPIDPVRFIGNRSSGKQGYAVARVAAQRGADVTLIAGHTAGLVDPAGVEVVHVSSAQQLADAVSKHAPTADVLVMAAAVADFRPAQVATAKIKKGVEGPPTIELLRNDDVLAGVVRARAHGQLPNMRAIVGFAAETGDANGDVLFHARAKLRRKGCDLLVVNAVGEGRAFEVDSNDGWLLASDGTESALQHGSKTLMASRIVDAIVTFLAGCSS
UniProt I6X8D2, whole entry: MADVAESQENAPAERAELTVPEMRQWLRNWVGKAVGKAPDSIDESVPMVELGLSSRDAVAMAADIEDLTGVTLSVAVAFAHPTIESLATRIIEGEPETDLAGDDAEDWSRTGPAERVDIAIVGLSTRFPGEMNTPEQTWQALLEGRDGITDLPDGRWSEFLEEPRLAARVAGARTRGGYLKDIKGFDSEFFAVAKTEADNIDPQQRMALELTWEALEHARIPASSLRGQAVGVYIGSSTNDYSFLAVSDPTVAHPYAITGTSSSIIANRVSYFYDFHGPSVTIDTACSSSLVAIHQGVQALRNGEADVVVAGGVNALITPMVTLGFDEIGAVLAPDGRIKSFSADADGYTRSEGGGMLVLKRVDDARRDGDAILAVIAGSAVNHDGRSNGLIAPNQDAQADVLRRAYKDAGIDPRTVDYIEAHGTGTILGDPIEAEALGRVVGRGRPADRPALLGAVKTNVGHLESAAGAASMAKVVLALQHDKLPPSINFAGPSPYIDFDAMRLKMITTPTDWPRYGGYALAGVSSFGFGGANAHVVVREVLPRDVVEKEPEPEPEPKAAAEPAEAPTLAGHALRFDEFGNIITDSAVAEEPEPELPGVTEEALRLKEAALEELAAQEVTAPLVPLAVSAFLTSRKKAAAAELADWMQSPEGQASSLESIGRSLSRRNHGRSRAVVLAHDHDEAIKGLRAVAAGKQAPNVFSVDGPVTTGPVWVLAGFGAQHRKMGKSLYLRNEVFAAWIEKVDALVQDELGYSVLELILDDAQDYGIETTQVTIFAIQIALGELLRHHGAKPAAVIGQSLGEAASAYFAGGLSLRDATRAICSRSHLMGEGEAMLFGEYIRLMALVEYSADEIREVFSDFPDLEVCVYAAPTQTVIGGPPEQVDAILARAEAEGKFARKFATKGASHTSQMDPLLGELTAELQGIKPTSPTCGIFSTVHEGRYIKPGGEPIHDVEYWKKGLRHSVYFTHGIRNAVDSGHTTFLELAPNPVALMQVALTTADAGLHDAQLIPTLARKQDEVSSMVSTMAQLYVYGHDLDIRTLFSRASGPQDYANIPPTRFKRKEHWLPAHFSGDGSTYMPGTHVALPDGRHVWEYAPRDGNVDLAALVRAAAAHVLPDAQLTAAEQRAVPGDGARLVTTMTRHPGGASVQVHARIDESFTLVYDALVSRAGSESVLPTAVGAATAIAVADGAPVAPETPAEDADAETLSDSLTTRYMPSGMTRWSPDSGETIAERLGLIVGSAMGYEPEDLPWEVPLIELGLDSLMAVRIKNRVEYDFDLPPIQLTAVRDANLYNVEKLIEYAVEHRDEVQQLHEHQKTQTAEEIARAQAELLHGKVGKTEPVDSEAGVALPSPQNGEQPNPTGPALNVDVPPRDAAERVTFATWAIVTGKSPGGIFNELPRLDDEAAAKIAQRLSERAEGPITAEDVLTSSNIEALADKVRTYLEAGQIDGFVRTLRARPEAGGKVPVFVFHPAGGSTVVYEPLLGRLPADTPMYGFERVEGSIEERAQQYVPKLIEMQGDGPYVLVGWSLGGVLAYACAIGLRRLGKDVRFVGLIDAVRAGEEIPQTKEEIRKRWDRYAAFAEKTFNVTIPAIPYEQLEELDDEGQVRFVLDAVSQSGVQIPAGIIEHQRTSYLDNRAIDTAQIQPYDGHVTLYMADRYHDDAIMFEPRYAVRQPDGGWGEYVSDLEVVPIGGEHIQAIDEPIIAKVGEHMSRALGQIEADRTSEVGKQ

A: 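Enzyme assay of tryptophanyl-tRNA synthetase; the read-out is not stated. Target: Tryptophan-tRNA ligase, Mycobacterium tuberculosis (UniProt P9WFT3). Tested at 10 µM. Direction is not recorded; retested compounds ran higher, which suggests that high means inhibition. Size under these conditions: about 65,000 compounds, about 64 of them at 50% or above in at least one test.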
B: 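Enzyme assay of histidyl-tRNA synthetase; the read-out is not stated. Target: Histidine-tRNA ligase, Trypanosoma cruzi CL Brener (UniProt Q4DA54). Compounds at 30 µM. Direction is inferred from retests: higher values go with stronger inhibition. Size under these conditions: about 69,000 compounds, about 31 of them at 50% or above in at least one test.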
C: 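Enzyme assay of the cytosolic lysyl-tRNA synthetase in 384-well plates, read by luminescence. Target: Lysine-tRNA ligase, Plasmodium falciparum 3D7 (UniProt Q8IDJ8). Tested at 30 µM. Direction is inferred from only a few compounds that gave an IC50; most scored high, so higher reads as stronger inhibition. Of about 69,000 compounds tested this way, about 49 (0.071%) reached 50% or more in at least one test.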
D: 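Enzyme assay of CoaBC with a phosphate dye (Biomol Green) read at 650 nm. Target: Coenzyme A biosynthesis protein CoaBC, Mycobacterium tuberculosis (UniProt P9WNZ1). Concentration: 30 µM. Higher reads as stronger inhibition, judged from the few compounds that gave an IC50. Most strong results did not repeat in a second test. Of about 67,000 compounds tested this way, about 40 (0.06%) reached 50% or more in at least one test.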
E: 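Enzyme assay of the thioesterase domain of polyketide synthase 13; the read-out is not stated. Target: Polyketide synthase Pks13, Mycobacterium tuberculosis (UniProt I6X8D2). Concentration: 30 µM. Higher reads as stronger inhibition (inferred from which compounds were picked for retests). Size under these conditions: about 67,000 compounds, about 300 of them at 50% or above in at least one test.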
F: 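Cell assay of Leishmania donovani living inside macrophages; the read-out is not stated. Compounds at 30 µM. The record gives no direction; compounds that gave an IC50 in retests scored well above the rest, so higher reads as stronger inhibition. About 69,000 compounds were tested under these conditions; 1.5% (about 1,000) showed 50% or more at least once.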

The filed quantity is “Percent Effect” (%).
The controls that fix the scale are not given in the record; negative values are as filed.
The compounds are a random part of those screened.

With CN(Cc1cc(C(C)(C)C)n[nH]1)C(=O)c1c[nH]nc1-c1cccc(F)c1 the screen gave A: 1.464%; B: 1.288%; C: 2.549%; D: -6.579%; E: -24.13%; F: 16.26%. O=C(Nc1ccncc1)NC1CCN(c2ccccc2Cl)C1=O (centres undefined) read A: -3.667%; B: 5.747%; C: 4.029%; D: 4%; E: -39.83%; F: 12.98%. With Cc1nnc(SCCNC(=O)Cn2cnc3ccccc3c2=O)s1 the screen gave A: -6.278%; B: 9.827%; C: 5.431%; D: 2.479%; E: -12.48%; F: 15.09%. For CNCCCNC1CCN(c2ccc(-n3ccnc3)cc2)CC1 the result was A: 5.491%; B: 1.288%; C: 4.804%; D: -1.316%; E: -5.684%; F: -14.43%. CN(C)CCCNC(=O)c1ccc(Cl)cc1Cl gave A: 0.4823%; B: 4.95%; C: 2.694%; D: 3.038%; E: -8.603%; F: 13.8%. COc1ccc(Br)c(C(=O)NCC2CCN(C(=O)c3ccoc3)CC2)c1 read A: -2.067%; B: 4.132%; C: -3.744%; D: -1.066%; E: -11.76%; F: 15.32%. With COCCN1C(=O)[C@H]2CC[C@@H]1CN(c1nccc(C3CCCC3)n1)C2 the screen gave A: -5.436%; B: 6.383%; C: 1.25%; D: 5.857%; E: 9.041%.

With O=C(c1cccc(F)c1F)N1CCn2c(nnc2C(F)(F)F)C1 the screen gave A: -5.53%; B: 7.389%; C: 7.392%; D: 5.063%; E: -32.06%; F: 23.23%. Cc1nc(C2(O)CCCNCC2)sc1CCOc1ccc(F)c(F)c1 (centres undefined) gave B: 4.494%; C: 1.742%; D: 5.576%; E: 5.821%. With CC(C)C(NC(=O)c1ccccc1F)C(=O)N1CCC2(CC1)OCCO2 (centres undefined) the screen gave A: 2.383%; B: 2.941%; C: 3.317%; D: -0.1626%; E: -32.81%; F: 8.844%. Result for Cc1nnc(NCC2(c3ccccc3)CCC2)c(C#N)c1C was A: 2.205%; B: 4.926%; C: 7.215%; D: 5.449%; E: -20.68%; F: 11.65%. Result for Cc1ccc(C#N)c(N2CC(C)(C)[C@@](C)(O)C2)n1 was A: -0.7224%; B: -0.5525%; C: 1.892%; D: -11.16%; E: -5.225%; F: 20.95%. With COCC1CN(Cc2ccoc2)Cc2nn(C)cc21 (centres undefined) the screen gave A: 4.66%; B: 2.521%; C: 2.193%; D: -5.071%; E: -3.857%. CCN(CC)C(=O)CNC(=O)c1ccc(-c2ccsc2)nc1C gave A: -3.565%; B: 4.018%; C: -4.721%; D: -0.7653%; E: -6.786%; F: 22.49%.

With Cn1nccc1-c1ccc2nc(C3CCN(CCO)CC3)nn2c1 the screen gave A: -1.784%; B: 5.946%; C: -0.6645%; D: 2.919%; E: -4.622%. For O=C(Nc1ccc2c(c1)OCCO2)c1ccc(=O)[nH]n1 the result was A: -0.3906%; B: 7.28%; C: -1.281%; D: -3.589%; E: -18.54%; F: 26.22%. For COc1cc(N2CCCC(c3nccn3CCN(C)C)C2)nc(N)n1 (centres undefined) the result was A: 1.754%; B: 3.306%; C: 3.09%; D: -14.04%; E: -21.08%; F: 44.82%. For Cc1cn(CC(=O)NC2CCN(CC3CC3)CC2)c2ccccc12 the result was A: 2.493%; B: 4.233%; C: -3.073%; D: -8.876%; E: -27.87%; F: 8.772%. COc1cc(N2C[C@@H](C)[C@](O)(C3CC3)C2)nc(N)n1 read A: -0.9449%; B: 0%; C: 9.842%; D: 1.79%; E: 4.161%; F: 15.99%. For COC[C@]1(O)CCN(c2cc(C3CC3)ncn2)CC1(C)C the result was A: 1.924%; B: 3.478%; C: 7.65%; D: 10.62%; E: -10.87%; F: 21.13%.

For reference, 2 entries once more:

* O=C(c1cccc(F)c1F)N1CCn2c(nnc2C(F)(F)F)C1 : A: -5.53%; B: 7.389%; C: 7.392%; D: 5.063%; E: -32.06%; F: 23.23%
* O=C(Nc1ccc2c(c1)OCCO2)c1ccc(=O)[nH]n1 : A: -0.3906%; B: 7.28%; C: -1.281%; D: -3.589%; E: -18.54%; F: 26.22%

Data taken from ChEMBL document CHEMBL3988442, “University of Dundee, Small-Polar-MMV Screening Library” (2021).